Test results taken from publication PMC3019149.
Results are given in words; binding and its absence hold for the method and conditions named. Binding seen in cells or lysates may run through a third protein. Where a sequence is shown, tags or fusion partners need not be part of it. Values belong to the binder of their own block, whether it stands above or below them.

Chains of the proteins cited; added tags and fusions are not shown.
UniProt P04050: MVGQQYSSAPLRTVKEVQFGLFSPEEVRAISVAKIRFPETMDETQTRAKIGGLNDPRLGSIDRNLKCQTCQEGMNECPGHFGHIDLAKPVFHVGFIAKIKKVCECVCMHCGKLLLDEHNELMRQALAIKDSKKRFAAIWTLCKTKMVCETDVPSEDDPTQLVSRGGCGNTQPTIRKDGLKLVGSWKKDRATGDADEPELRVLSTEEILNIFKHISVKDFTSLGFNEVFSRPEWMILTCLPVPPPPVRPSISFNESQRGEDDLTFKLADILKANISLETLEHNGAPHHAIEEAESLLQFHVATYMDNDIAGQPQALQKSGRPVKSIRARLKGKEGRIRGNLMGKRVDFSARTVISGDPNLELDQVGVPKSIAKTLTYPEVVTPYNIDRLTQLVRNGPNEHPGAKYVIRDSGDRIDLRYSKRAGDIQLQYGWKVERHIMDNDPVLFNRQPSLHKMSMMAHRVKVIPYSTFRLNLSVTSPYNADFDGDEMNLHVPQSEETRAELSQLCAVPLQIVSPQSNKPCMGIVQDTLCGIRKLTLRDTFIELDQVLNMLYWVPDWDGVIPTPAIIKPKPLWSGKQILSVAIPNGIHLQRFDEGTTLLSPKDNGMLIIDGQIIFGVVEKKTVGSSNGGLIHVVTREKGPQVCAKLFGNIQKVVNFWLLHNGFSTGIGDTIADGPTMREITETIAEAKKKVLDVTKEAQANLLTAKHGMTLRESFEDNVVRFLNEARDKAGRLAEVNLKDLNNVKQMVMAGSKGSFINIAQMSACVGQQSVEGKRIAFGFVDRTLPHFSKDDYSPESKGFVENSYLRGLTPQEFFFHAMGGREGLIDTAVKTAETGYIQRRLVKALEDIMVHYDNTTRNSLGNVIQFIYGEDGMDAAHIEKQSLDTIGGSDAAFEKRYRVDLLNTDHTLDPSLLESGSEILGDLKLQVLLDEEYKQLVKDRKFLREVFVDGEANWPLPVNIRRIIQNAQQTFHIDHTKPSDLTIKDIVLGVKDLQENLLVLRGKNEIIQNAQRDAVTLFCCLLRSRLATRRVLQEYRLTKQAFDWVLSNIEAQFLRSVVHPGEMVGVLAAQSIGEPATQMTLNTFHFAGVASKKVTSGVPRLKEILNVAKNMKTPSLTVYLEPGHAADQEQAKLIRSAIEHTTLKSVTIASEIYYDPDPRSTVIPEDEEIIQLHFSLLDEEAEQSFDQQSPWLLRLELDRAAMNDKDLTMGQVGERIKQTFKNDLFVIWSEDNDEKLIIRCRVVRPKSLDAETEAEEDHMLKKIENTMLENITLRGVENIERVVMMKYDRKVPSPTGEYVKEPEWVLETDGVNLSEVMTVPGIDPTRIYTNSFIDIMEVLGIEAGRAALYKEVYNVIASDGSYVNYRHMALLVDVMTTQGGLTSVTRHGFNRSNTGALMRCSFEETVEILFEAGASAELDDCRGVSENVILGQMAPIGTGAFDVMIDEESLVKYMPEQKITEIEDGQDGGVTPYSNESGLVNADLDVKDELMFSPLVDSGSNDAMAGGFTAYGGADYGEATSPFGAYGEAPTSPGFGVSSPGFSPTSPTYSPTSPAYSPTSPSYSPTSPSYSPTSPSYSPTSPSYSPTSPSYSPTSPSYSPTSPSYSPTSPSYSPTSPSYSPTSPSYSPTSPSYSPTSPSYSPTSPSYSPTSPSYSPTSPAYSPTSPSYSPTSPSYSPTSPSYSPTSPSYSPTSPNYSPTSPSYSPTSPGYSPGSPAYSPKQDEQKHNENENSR

Experiments:
[1] = target: Rpb1, the large subunit of RNA polymerase II (S. cerevisiae (endogenous in the yeast strains used)) (UniProt P04050); test: co-IP; 8WG16 antibody (anti-Rpb1) covalently coupled to AminoLink matrix; total yeast extracts of cells expressing MYC- or GFP-tagged proteins, untreated or treated with rapamycin (200 ng/ml for 30 min); washed four times with 50 mM Tris-HCl pH 7.5, 150 mM NaCl, 0.1% NP40; Western blot with anti-MYC or anti-GFP
GST-Apn1 (S. cerevisiae) = target: T1, GST-Apn1 (S. cerevisiae) (UniProt P22936); test: pull-down; GST-CTD or GST-Apn1 bound from yeast extracts (cells untreated or treated with rapamycin 200 ng/ml for 2 h) to the GST affinity matrix and not eluted; 1 mg of a second extract with Rrd1-MYC or Yap8-MYC applied for 1 h at room temperature; washed with 20 bed volumes of PBS; Western blot with anti-MYC and anti-GST; only the target purified
T1 sequence: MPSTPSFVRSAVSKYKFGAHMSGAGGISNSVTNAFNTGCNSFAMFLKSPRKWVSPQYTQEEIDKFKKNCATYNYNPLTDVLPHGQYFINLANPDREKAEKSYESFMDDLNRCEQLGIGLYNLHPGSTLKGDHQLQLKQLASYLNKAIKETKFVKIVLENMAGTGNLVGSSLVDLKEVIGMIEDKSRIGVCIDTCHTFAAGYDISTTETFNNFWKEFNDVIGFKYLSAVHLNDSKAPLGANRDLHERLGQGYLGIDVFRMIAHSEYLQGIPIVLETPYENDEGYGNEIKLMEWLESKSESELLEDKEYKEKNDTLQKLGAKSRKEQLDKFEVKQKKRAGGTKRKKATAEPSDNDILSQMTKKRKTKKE

binding [1]: no binding
B1: Swe1-MYC (protein, UniProt P32944 1-819)
chain: MSSLDEDEEDFEMLDTENLQFMGKKMFGKQAGEDESDDFAIGGSTPTNKLKFYPYSNNKLTRSTGTLNLSLSNTALSEANSKFLGKIEEEEEEEEEGKDEESVDSRIKRWSPFHENESVTTPITKRSAEKTNSPISLKQWNQRWFPKNDARTENTSSSSSYSVAKPNQSAFTSSGLVSKMSMDTSLYPAKLRIPETPVKKSPLVEGRDHKHVHLSSSKNASSSLSVSPLNFVEDNNLQEDLLFSDSPSSKALPSIHVPTIDSSPLSEAKYHAHDRHNNQTNILSPTNSLVTNSSPQTLHSNKFKKIKRARNSVILKNRELTNSLQQFKDDLYGTDENFPPPIIISSHHSTRKNPQPYQFRGRYDNDTDEEISTPTRRKSIIGATSQTHRESRPLSLSSAIVTNTTSAETHSISSTDSSPLNSKRRLISSNKLSANPDSHLFEKFTNVHSIGKGQFSTVYQVTFAQTNKKYAIKAIKPNKYNSLKRILLEIKILNEVTNQITMDQEGKEYIIDYISSWKFQNSYYIMTELCENGNLDGFLQEQVIAKKKRLEDWRIWKIIVELSLALRFIHDSCHIVHLDLKPANVMITFEGNLKLGDFGMATHLPLEDKSFENEGDREYIAPEIISDCTYDYKADIFSLGLMIVEIAANVVLPDNGNAWHKLRSGDLSDAGRLSSTDIHSESLFSDITKVDTNDLFDFERDNISGNSNNAGTSTVHNNSNINNPNMNNGNDNNNVNTAATKNRLILHKSSKIPAWVPKFLIDGESLERIVRWMIEPNYERRPTANQILQTEECLYVEMTRNAGAIIQEDDFGPKPKFFI

binding (GST-Apn1 (S. cerevisiae)): no binding
B2: Rrd1-MYC (protein, UniProt P40454 1-393)
chain: MSLDRVDWPHATFSTPVKRIFDTQTTLDFQSSLAIHRIKYHLHKYTTLISHCSDPDPHATASSIAMVNGLMGVLDKLAHLIDETPPLPGPRRYGNLACREWHHKLDERLPQWLQEMLPSEYHEVVPELQYYLGNSFGSSTRLDYGTGHELSFMATVAALDMLGMFPHMRGADVFLLFNKYYTIMRRLILTYTLEPAGSHGVWGLDDHFHLVYILGSSQWQLLDAQAPLQPREILDKSLVREYKDTNFYCQGINFINEVKMGPFEEHSPILYDIAVTVPRWSKVCKGLLKMYSVEVLKKFPVVQHFWFGTGFFPWVNIQNGTDLPVFEEKEEESIEQANAGSPGREQTSTRFPTSTSMPPPGVPPSGNNINYLLSHQNQSHRNQTSFSRDRLRR
